Results deposited as PubChem BioAssay AID1224830 (NIAID, 2016).

Screen: 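Genes whose knock-down alters the TNF-alpha reporter response to LPS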 (primary screen)
System: human THP-1 monocytic leukaemia cells, TNF dual-luciferase reporter clone, PMA-differentiated to macrophage-like cells
Reagents: siRNA pool against human genes, 50 nM
Timing: LPS for 4 h, given about 3 days after siRNA transfection
Conditions: bacterial LPS (TLR4 ligand), 10 ng/ml
Detection: 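TNF firefly reporter luminescence divided by renilla, normalised to the plate median, then turned into a robust z-score for each replicate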
Scale: TNF reporter robust z-score: higher = stronger TNF reporter response to LPS
Hit rule: 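Each well counts as active if its z-score is over 2.8 or under -1.5; controls are left without a call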
Here is an unselected part of about 18,000 reagents tested. About 2,900 of all reagents (16%) were called active. 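Calls are made per well; low scores hint the gene aids the LPS response, high scores that it dampens it.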 Reagents against one gene are numbered here. Repeated entries: four replicate wells of each siRNA pool. Reagent sequences are not shown.

| gene | reagent | TNF reporter robust z-score | Outcome |
| --- | --- | --- | --- |
| FGF19 (fibroblast growth factor 19) | 1 | -0.41 | inactive |
| FGF19 (fibroblast growth factor 19) | 1 | -0.19 | inactive |
| FGF19 (fibroblast growth factor 19) | 1 | 0.83 | inactive |
| FGF19 (fibroblast growth factor 19) | 1 | 0.97 | inactive |
| UGT2B28 (UDP glucuronosyltransferase family 2 member B28) | 1 | -0.14 | inactive |
| UGT2B28 (UDP glucuronosyltransferase family 2 member B28) | 1 | 0.75 | inactive |
| UGT2B28 (UDP glucuronosyltransferase family 2 member B28) | 1 | 1.58 | inactive |
| UGT2B28 (UDP glucuronosyltransferase family 2 member B28) | 1 | 1.31 | inactive |
| CLDN16 (claudin 16) | 1 | -0.19 | inactive |
| CLDN16 (claudin 16) | 1 | -0.55 | inactive |
| CLDN16 (claudin 16) | 1 | -0.6 | inactive |
| CLDN16 (claudin 16) | 1 | -0.41 | inactive |
| RTP2 (receptor transporter protein 2) | 1 | -0.08 | inactive |
| RTP2 (receptor transporter protein 2) | 1 | -0.14 | inactive |
| RTP2 (receptor transporter protein 2) | 1 | -0.36 | inactive |
| RTP2 (receptor transporter protein 2) | 1 | 0.2 | inactive |
| FOXD4L3 (forkhead box D4 like 3) | 1 | -0.42 | inactive |
| FOXD4L3 (forkhead box D4 like 3) | 1 | 0.53 | inactive |
| FOXD4L3 (forkhead box D4 like 3) | 1 | -0.29 | inactive |
| FOXD4L3 (forkhead box D4 like 3) | 2 | 2.15 | inactive |
| FOXD4L3 (forkhead box D4 like 3) | 2 | 0.45 | inactive |
| FOXD4L3 (forkhead box D4 like 3) | 2 | -0.11 | inactive |
| FOXD4L3 (forkhead box D4 like 3) | 2 | -0.1 | inactive |
| DMTN (dematin actin binding protein) | 1 | -0.15 | inactive |
| DMTN (dematin actin binding protein) | 1 | -0.06 | inactive |
| DMTN (dematin actin binding protein) | 1 | -0.27 | inactive |
| DMTN (dematin actin binding protein) | 1 | 0.58 | inactive |
| BTBD17 (BTB domain containing 17) | 1 | 0.23 | inactive |
| BTBD17 (BTB domain containing 17) | 1 | 1.65 | inactive |
| BTBD17 (BTB domain containing 17) | 1 | 0.01 | inactive |
| BTBD17 (BTB domain containing 17) | 1 | 0.84 | inactive |
| TMEM202 (transmembrane protein 202) | 1 | 0 | inactive |
| TMEM202 (transmembrane protein 202) | 1 | -0.27 | inactive |
| TMEM202 (transmembrane protein 202) | 1 | 0.12 | inactive |
| TMEM202 (transmembrane protein 202) | 1 | -0.39 | inactive |
| DDAH1 (dimethylarginine dimethylaminohydrolase 1) | 1 | -0.72 | inactive |
| DDAH1 (dimethylarginine dimethylaminohydrolase 1) | 1 | -0.18 | inactive |
| DDAH1 (dimethylarginine dimethylaminohydrolase 1) | 1 | -0.81 | inactive |
| DDAH1 (dimethylarginine dimethylaminohydrolase 1) | 1 | -0.4 | inactive |
| ORC1 (origin recognition complex subunit 1) | 1 | -0.71 | inactive |
| ORC1 (origin recognition complex subunit 1) | 1 | 0.19 | inactive |
| ORC1 (origin recognition complex subunit 1) | 1 | 1.01 | inactive |
| ORC1 (origin recognition complex subunit 1) | 1 | -0.63 | inactive |
| LRRC37A2 (leucine rich repeat containing 37 member A2) | 1 | 1.76 | inactive |
| LRRC37A2 (leucine rich repeat containing 37 member A2) | 1 | 0.83 | inactive |
| LRRC37A2 (leucine rich repeat containing 37 member A2) | 1 | -0.13 | inactive |
| LRRC37A2 (leucine rich repeat containing 37 member A2) | 1 | -0.35 | inactive |
| NFKBIA (NFKB inhibitor alpha) | 1 | 1.23 | inactive |
| NFKBIA (NFKB inhibitor alpha) | 1 | 2.03 | inactive |
| NFKBIA (NFKB inhibitor alpha) | 1 | 1.51 | inactive |
| NFKBIA (NFKB inhibitor alpha) | 1 | 1.39 | inactive |
| ABCA10 (ATP binding cassette subfamily A member 10) | 1 | 0.88 | inactive |
| ABCA10 (ATP binding cassette subfamily A member 10) | 1 | -0.33 | inactive |
| ABCA10 (ATP binding cassette subfamily A member 10) | 1 | -0.76 | inactive |
| ABCA10 (ATP binding cassette subfamily A member 10) | 1 | 0.69 | inactive |
| PCDHA2 (protocadherin alpha 2) | 1 | – | inactive |
| PCDHA2 (protocadherin alpha 2) | 1 | -0.87 | inactive |
| PCDHA2 (protocadherin alpha 2) | 1 | -0.35 | inactive |
| PCDHA2 (protocadherin alpha 2) | 1 | -0.66 | inactive |
| PCDHA2 (protocadherin alpha 2) | 1 | -0.78 | inactive |
| ZNF621 (zinc finger protein 621) | 1 | 0.83 | inactive |
| ZNF621 (zinc finger protein 621) | 1 | 1.78 | inactive |
| ZNF621 (zinc finger protein 621) | 1 | -0.34 | inactive |
| ZNF621 (zinc finger protein 621) | 1 | 3.18 | active |
| SUSD6 (sushi domain containing 6) | 1 | -0.92 | inactive |
| SUSD6 (sushi domain containing 6) | 1 | 0.31 | inactive |
| SUSD6 (sushi domain containing 6) | 1 | -0.53 | inactive |
| SUSD6 (sushi domain containing 6) | 1 | 0.03 | inactive |
| CPS1 (carbamoyl-phosphate synthase 1) | 1 | 0.51 | inactive |
| CPS1 (carbamoyl-phosphate synthase 1) | 1 | 1.36 | inactive |
| CPS1 (carbamoyl-phosphate synthase 1) | 1 | 0.73 | inactive |
| CPS1 (carbamoyl-phosphate synthase 1) | 1 | 0.78 | inactive |
| RIOK3 (RIO kinase 3) | 1 | 1.16 | inactive |
| RIOK3 (RIO kinase 3) | 1 | 0.97 | inactive |
| RIOK3 (RIO kinase 3) | 1 | -0.12 | inactive |
| RIOK3 (RIO kinase 3) | 1 | -0.17 | inactive |
| GFOD1 (Gfo/Idh/MocA-like oxidoreductase domain containing 1) | 1 | -0.58 | inactive |
| GFOD1 (Gfo/Idh/MocA-like oxidoreductase domain containing 1) | 1 | -0.43 | inactive |
| GFOD1 (Gfo/Idh/MocA-like oxidoreductase domain containing 1) | 1 | -0.65 | inactive |
| GFOD1 (Gfo/Idh/MocA-like oxidoreductase domain containing 1) | 1 | -0.7 | inactive |
| GFOD1 (Gfo/Idh/MocA-like oxidoreductase domain containing 1) | 2 | -0.49 | inactive |
| GFOD1 (Gfo/Idh/MocA-like oxidoreductase domain containing 1) | 2 | -0.28 | inactive |
| GFOD1 (Gfo/Idh/MocA-like oxidoreductase domain containing 1) | 2 | -0.46 | inactive |
| GFOD1 (Gfo/Idh/MocA-like oxidoreductase domain containing 1) | 2 | -0.22 | inactive |
| RBMX2 (RNA binding motif protein X-linked 2) | 1 | 1.3 | inactive |
| RBMX2 (RNA binding motif protein X-linked 2) | 1 | 1.8 | inactive |
| RBMX2 (RNA binding motif protein X-linked 2) | 1 | 0.91 | inactive |
| RBMX2 (RNA binding motif protein X-linked 2) | 1 | 1.82 | inactive |
| MAP3K7CL (MAP3K7 C-terminal like) | 1 | -0.42 | inactive |
| MAP3K7CL (MAP3K7 C-terminal like) | 1 | 0.04 | inactive |
| MAP3K7CL (MAP3K7 C-terminal like) | 1 | -0.23 | inactive |
| MAP3K7CL (MAP3K7 C-terminal like) | 1 | -0.16 | inactive |
| TCHHL1 (trichohyalin like 1) | 1 | -1.03 | inactive |
| TCHHL1 (trichohyalin like 1) | 1 | -0.97 | inactive |
| TCHHL1 (trichohyalin like 1) | 1 | -0.82 | inactive |
| TCHHL1 (trichohyalin like 1) | 1 | -0.43 | inactive |
| FOXD1 (forkhead box D1) | 1 | 0.34 | inactive |
| FOXD1 (forkhead box D1) | 1 | 0.06 | inactive |
| FOXD1 (forkhead box D1) | 1 | -0.13 | inactive |
| FOXD1 (forkhead box D1) | 1 | 0.04 | inactive |
| EML2 (EMAP like 2) | 1 | -1.04 | inactive |
| EML2 (EMAP like 2) | 1 | -0.85 | inactive |
| EML2 (EMAP like 2) | 1 | -0.68 | inactive |
| EML2 (EMAP like 2) | 1 | -0.94 | inactive |
| CSNK1E (casein kinase 1 epsilon) | 1 | -0.3 | inactive |
| CSNK1E (casein kinase 1 epsilon) | 1 | -1.15 | inactive |
| CSNK1E (casein kinase 1 epsilon) | 1 | -0.21 | inactive |
| CSNK1E (casein kinase 1 epsilon) | 1 | -1.06 | inactive |
| MDFI (MyoD family inhibitor) | 1 | 0.24 | inactive |
| MDFI (MyoD family inhibitor) | 1 | 0.57 | inactive |
| MDFI (MyoD family inhibitor) | 1 | 2.09 | inactive |
| MDFI (MyoD family inhibitor) | 1 | 1.72 | inactive |

Not a retest: 5 of the entries above.
| gene | reagent | TNF reporter robust z-score | Outcome |
| --- | --- | --- | --- |
| CSNK1E (casein kinase 1 epsilon) | 1 | -0.3 | inactive |
| CSNK1E (casein kinase 1 epsilon) | 1 | -1.15 | inactive |
| CSNK1E (casein kinase 1 epsilon) | 1 | -0.21 | inactive |
| CSNK1E (casein kinase 1 epsilon) | 1 | -1.06 | inactive |
| MDFI (MyoD family inhibitor) | 1 | 0.24 | inactive |
